Cleaved PARP after 72 h of treatment

Data from the primary screen of doi:10.1371/journal.pone.0140310, rounded.

First drug in all entries: bexarotene, 10000 nM, C=C(c1ccc(C(=O)O)cc1)c1cc2c(cc1C)C(C)(C)CCC2(C)C

Drug key:
vismodegib, 5000 nM: CS(=O)(=O)c1ccc(C(=O)Nc2ccc(Cl)c(-c3ccccn3)c2)c(Cl)c1
GW9662, 10000 nM: O=C(Nc1ccccc1)c1cc([N+](=O)[O-])ccc1Cl
dovitinib, 500 nM: CN1CCN(c2ccc3nc(-c4c(N)c5c(F)cccc5[nH]c4=O)[nH]c3c2)CC1
BI-D1870, 1000 nM: CC(C)CCN1c2nc(Nc3cc(F)c(O)c(F)c3)ncc2N(C)C(=O)C1C (centres unmarked)
etoposide, 100 nM: COc1cc([C@@H]2c3cc4c(cc3[C@@H](O[C@@H]3O[C@@H]5CO[C@@H](C)O[C@H]5[C@H](O)[C@H]3O)[C@H]3COC(=O)[C@H]23)OCO4)cc(OC)c1O
SU6656, 2000 nM: CN(C)S(=O)(=O)c1ccc2c(c1)/C(=C/c1cc3c([nH]1)CCCC3)C(=O)N2
dorsomorphin, 2000 nM: c1cc(-c2cnn3cc(-c4ccc(OCCN5CCCCC5)cc4)cnc23)ccn1
CHIR-265, 400 nM: Cn1c(Nc2ccc(C(F)(F)F)cc2)nc2cc(Oc3ccnc(-c4ncc(C(F)(F)F)[nH]4)c3)ccc21
sunitinib, 2000 nM: CCN(CC)CCNC(=O)c1c(C)[nH]c(/C=C2\C(=O)Nc3ccc(F)cc32)c1C
SNS-314, 4 nM: O=C(Nc1cccc(Cl)c1)Nc1ncc(CCNc2ncnc3ccsc23)s1
temozolomide, 10000 nM: Cn1nnc2c(C(N)=O)ncn2c1=O
nilotinib, 1000 nM: Cc1cn(-c2cc(NC(=O)c3ccc(C)c(Nc4nccc(-c5cccnc5)n4)c3)cc(C(F)(F)F)c2)cn1
GSK0660, 5000 nM: COC(=O)c1sccc1S(=O)(=O)Nc1ccc(Nc2ccccc2)cc1OC
enzastaurin, 4000 nM: Cn1cc(C2=C(c3cn(C4CCN(Cc5ccccn5)CC4)c4ccccc34)C(=O)NC2=O)c2ccccc21
OSU-03012, 5000 nM: NCC(=O)Nc1ccc(-n2nc(C(F)(F)F)cc2-c2ccc3c(ccc4ccccc43)c2)cc1
OSI-906, 2000 nM: C[C@]1(O)C[C@@H](c2nc(-c3ccc4ccc(-c5ccccc5)nc4c3)c3c(N)nccn32)C1
fludarabine, 1000 nM: Nc1nc(F)nc2c1ncn2[C@@H]1O[C@H](CO)[C@@H](O)[C@@H]1O
PF-04217903, 5000 nM: OCCn1cc(-c2cnc3nnn(Cc4ccc5ncccc5c4)c3n2)cn1

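Human melanoma cell lines in 1,536-well plates were treated with two drugs together for 72 h, then fixed, stained and imaged. Each value is the cleaved-PARP-positive fraction of nuclei relative to DMSO-treated wells, in %, so that 100 equals the control and higher values mean more apoptosis. Concentrations were fixed for each drug; these are the higher of two levels. The file gives one value for each pair and line, without errors, so small differences may be noise. The marker varies much from line to line, for technical or biological reasons.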 Only some of the drugs and lines screened are listed, without regard to their results. An entry leaves out what has no value listed here. A dash means that no value is listed here.

Results for SNS-314 are WM1716: 298; IST-MEL1: 90.6; WM3619: 162; MeWo: 158; WM1745: 117; G-361: 134; MZ2-MEL: 161. SU6656 gave WM1716: 9.2; IST-MEL1: 107; WM3619: 102; MeWo: 181; WM1745: 112; G-361: 85.5; MZ2-MEL: 221. For vismodegib the values were WM1716: 63.9; IST-MEL1: 89.1; WM3619: 113; MeWo: 132; WM1745: 65.8; G-361: 190; MZ2-MEL: 730. PF-04217903 gave WM1716: 45.6; IST-MEL1: 182; WM3619: 102; MeWo: 51.1; WM1745: 130; G-361: 203; MZ2-MEL: 861. GW9662 gave WM1716: 22.1; 501mel: 190; IST-MEL1: 143; WM3619: 141; MeWo: 82.7; G-361: 118; MZ2-MEL: 154. For enzastaurin the values were WM1716: 139; IST-MEL1: 93.2; WM3619: 99.9; MeWo: 51.7; WM1745: 155; G-361: 260; MZ2-MEL: 54.6.

For nilotinib the values were WM1716: 205; IST-MEL1: 134; WM3619: 92.8; MeWo: 102; WM1745: 128; G-361: 116; MZ2-MEL: 117. etoposide gave WM1716: 266; IST-MEL1: 54.1; WM3619: 131; MeWo: 124; WM1745: 182; G-361: 199; MZ2-MEL: 372. With OSI-906 the screen read WM1716: 19.0; IST-MEL1: 127; WM3619: 115; MeWo: 70.7; WM1745: 188; G-361: 76.0; MZ2-MEL: 184. CHIR-265 gave WM1716: 85.9; IST-MEL1: 71.1; WM3619: 258; MeWo: 18.1; WM1745: 153; G-361: 603; MZ2-MEL: 350. With fludarabine the screen read WM1716: 80.0; IST-MEL1: 190; WM3619: 111; MeWo: 89.5; WM1745: 125; G-361: 231; MZ2-MEL: 436. For sunitinib the values were WM1716: 49.6; IST-MEL1: 104; WM3619: 128; MeWo: 32.5; WM1745: 179; G-361: 87.3; MZ2-MEL: 121.

With temozolomide the screen read WM1716: 404; IST-MEL1: 75.8; WM3619: 127; MeWo: 71.0; WM1745: 113; G-361: 123; MZ2-MEL: 248. For OSU-03012 the values were WM1716: 84.3; IST-MEL1: 81.4; WM3619: 311; MeWo: 19.2; WM1745: 89.9; G-361: 252; MZ2-MEL: 566. With dorsomorphin the screen read WM1716: 98.6; 501mel: 198; IST-MEL1: 72.0; WM3619: 124; MeWo: 112; G-361: 617; MZ2-MEL: 242. dovitinib gave WM1716: 224; IST-MEL1: 287; WM3619: 98.7; MeWo: 148; WM1745: 114; G-361: 139; MZ2-MEL: 150. For BI-D1870 the values were WM1716: 89.8; 501mel: 312; IST-MEL1: 287; WM3619: 167; MeWo: 98.1; G-361: 60.9; MZ2-MEL: 360. With GSK0660 the screen read WM1716: 16.7; 501mel: 75.8; IST-MEL1: 146; WM3619: 118; MeWo: 50.9; G-361: 150; MZ2-MEL: 337.

Some entries from above, unchanged:

Second drug,WM1716,501mel,IST-MEL1,WM3619,MeWo,WM1745,G-361,MZ2-MEL
enzastaurin,139,-,93.2,99.9,51.7,155,260,54.6
GW9662,22.1,190,143,141,82.7,-,118,154